Binding data for one molecule are collected here from paper doi:10.1101/2023.08.13.546412 (bioRxiv, 2023).

Common to all, as to assay: two-hybrid
The target in assay [1] is T1, AtSK41-BD (Arabidopsis SHAGGY-like kinase 41, yeast two-hybrid fusion) (Arabidopsis thaliana) (UniProt Q39019).
T1 sequence: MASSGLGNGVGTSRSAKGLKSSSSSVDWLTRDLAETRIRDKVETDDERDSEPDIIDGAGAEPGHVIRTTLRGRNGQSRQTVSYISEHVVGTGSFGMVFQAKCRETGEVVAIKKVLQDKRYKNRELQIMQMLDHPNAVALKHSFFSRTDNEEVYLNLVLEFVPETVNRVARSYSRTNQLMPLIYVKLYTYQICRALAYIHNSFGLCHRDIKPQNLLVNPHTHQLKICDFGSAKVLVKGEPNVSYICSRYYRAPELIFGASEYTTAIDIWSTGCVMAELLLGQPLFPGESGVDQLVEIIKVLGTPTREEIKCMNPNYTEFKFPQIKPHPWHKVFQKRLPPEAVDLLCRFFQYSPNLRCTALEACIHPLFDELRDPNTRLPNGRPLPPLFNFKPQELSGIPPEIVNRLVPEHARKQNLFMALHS

The target of assay [2] is T2, AtSK12-BD (Arabidopsis SHAGGY-like kinase 12, yeast two-hybrid fusion) (Arabidopsis thaliana) (UniProt P43289).
T2 sequence: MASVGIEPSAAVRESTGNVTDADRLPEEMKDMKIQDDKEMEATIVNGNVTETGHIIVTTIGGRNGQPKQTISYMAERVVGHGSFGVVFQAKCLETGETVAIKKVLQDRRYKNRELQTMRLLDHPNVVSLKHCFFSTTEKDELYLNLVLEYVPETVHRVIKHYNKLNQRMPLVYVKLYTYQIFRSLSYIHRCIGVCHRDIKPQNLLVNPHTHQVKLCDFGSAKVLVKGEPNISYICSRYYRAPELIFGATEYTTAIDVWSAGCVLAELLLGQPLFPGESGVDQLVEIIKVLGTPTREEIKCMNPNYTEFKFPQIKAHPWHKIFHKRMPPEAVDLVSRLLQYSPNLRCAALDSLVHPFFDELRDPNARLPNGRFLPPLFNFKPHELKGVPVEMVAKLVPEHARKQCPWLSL

Assay [3] deals with T3, AtSK22-BD (Arabidopsis SHAGGY-like kinase 22, yeast two-hybrid fusion) (Arabidopsis thaliana) (UniProt Q39012).
T3 sequence: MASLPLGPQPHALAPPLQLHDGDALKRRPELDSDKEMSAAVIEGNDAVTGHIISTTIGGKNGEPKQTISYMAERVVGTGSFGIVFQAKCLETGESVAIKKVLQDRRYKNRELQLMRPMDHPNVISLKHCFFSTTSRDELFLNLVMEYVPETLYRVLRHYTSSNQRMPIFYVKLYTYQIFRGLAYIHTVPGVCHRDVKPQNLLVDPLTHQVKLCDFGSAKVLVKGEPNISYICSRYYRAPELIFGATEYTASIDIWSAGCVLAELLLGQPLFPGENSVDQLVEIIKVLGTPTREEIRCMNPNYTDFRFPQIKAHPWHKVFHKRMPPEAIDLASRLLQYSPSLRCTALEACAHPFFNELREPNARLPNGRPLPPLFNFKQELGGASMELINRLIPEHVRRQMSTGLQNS

The target in assay [4] is T4, AtSK13-BD (Arabidopsis SHAGGY-like kinase 13, yeast two-hybrid fusion) (Arabidopsis thaliana) (UniProt Q8VZD5).
T4 sequence: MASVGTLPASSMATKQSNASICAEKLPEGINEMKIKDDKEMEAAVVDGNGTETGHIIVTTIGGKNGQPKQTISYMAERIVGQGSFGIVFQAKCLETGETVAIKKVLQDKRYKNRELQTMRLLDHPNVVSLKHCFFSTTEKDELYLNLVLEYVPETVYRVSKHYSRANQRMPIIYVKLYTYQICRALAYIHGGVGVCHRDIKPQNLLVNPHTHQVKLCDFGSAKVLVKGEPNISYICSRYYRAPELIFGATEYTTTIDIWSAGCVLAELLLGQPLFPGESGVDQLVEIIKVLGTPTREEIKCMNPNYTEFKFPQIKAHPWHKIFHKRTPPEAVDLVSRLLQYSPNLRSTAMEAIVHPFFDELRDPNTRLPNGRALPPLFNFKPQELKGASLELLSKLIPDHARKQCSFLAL

For assay [5], the target named is T5, AtSK42-BD (Arabidopsis SHAGGY-like kinase 42, yeast two-hybrid fusion) (Arabidopsis thaliana) (UniProt Q9FVS6).
T5 sequence: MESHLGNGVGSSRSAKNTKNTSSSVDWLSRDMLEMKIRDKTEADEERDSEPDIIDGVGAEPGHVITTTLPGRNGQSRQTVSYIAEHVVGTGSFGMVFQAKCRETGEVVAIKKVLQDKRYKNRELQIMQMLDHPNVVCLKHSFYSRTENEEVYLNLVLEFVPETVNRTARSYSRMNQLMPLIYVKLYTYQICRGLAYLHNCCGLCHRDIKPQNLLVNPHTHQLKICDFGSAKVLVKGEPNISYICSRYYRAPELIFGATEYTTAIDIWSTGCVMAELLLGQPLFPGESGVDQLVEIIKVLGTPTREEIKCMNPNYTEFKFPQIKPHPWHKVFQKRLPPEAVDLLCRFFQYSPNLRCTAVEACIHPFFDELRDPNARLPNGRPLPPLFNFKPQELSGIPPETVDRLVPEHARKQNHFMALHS

These are yes or no findings as the source states them, for the method shown. Some binding calls cover weakened binding; strength is not graded here. Sequences can lack the tags named with a protein.

B1: WOX5-AD (WUSCHEL-RELATED HOMEOBOX 5, yeast two-hybrid fusion) (protein, UniProt Q8H1D2 1-182)
chain: MSFSVKGRSLRGNNNGGTGTKCGRWNPTVEQLKILTDLFRAGLRTPTTDQIQKISTELSFYGKIESKNVFYWFQNHKARERQKRRKISIDFDHHHHQPSTRDVFEISEEDCQEEEKVIETLQLFPVNSFEDSNSKVDKMRARGNNQYREYIRETTTTSFSPYSSCGAEMEHPPPLDLRLSFL
In the case of B1, the binding entry in assay [1] is “no binding”; in assay [2], “no binding”; in assay [3] it was “binds weakly”; in assay [4], “no binding”; in assay [5], “no binding”.
